Test results taken from PubChem BioAssay AID1259354 (Paczesny and Yang Labs, IUPUI and University of Michigan, 2018).
Among all 78,000 compounds or so, about 1,800 (2.3%) were called active. Inconclusive means that the source gave no clear call. Such entries were picked first, then a sample of the others. Cut-off read from the data, not from the text of the source: active = inhibition above about 30%; inconclusive = mostly about 10% to 28%; inactive = weaker than that.

By UniProt entry, the sequences of proteins in these tests, tags left out. Where a name states a change or a piece, a line headed by the entry shows the natural chain unless it says otherwise.
UniProt Q01638: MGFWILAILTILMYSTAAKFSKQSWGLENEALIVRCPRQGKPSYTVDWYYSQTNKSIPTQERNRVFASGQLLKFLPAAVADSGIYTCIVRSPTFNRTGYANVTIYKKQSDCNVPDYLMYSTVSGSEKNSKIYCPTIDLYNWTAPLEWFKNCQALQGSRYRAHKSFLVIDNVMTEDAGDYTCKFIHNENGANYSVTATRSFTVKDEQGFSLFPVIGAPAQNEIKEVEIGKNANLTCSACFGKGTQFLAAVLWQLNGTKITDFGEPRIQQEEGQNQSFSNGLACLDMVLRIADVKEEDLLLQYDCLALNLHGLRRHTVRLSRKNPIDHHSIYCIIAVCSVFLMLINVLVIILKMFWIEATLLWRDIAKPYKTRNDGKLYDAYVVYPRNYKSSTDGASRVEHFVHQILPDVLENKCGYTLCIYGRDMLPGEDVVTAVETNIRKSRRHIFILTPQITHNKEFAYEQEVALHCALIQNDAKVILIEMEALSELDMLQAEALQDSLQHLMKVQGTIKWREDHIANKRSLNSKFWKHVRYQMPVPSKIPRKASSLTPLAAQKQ

target: Interleukin-1 receptor-like 1 (Homo sapiens) (UniProt Q01638); assay: blocks human ST2 binding to IL-33, primary screen, biochemical, AlphaLISA (AID 1259354); settings: AlphaLISA ST2-Fc/biotin-IL-33 interaction, 1 h; at 17 µM, active compounds read high

| Structure (SMILES) | inhibition |
| --- | --- |
| Cc1cccc(NC2CCS(=O)(=O)C2)c1 (centres undefined) | inactive |
| Cc1ccn2c(=O)cc(COc3cccc(NC(=O)CN4C(=O)c5ccccc5C4=O)c3)nc2c1 | inconclusive: 10% |
| COc1ccc2c(=O)c(Oc3ccc(C(=O)O)cc3)coc2c1 | inactive |
| Cc1cccc(N2CCN(C(=O)c3cccn4c(=O)c5c6c(sc5nc34)CCCC6)CC2C)c1 (centres undefined) | inactive |
| O=C(CSc1nc2c(c(=O)n1-c1ccccc1)SCC2)N1CCN(c2ccccc2)CC1 | inconclusive: 17% |
| CCN(CC)CCN(C)Cc1ccc([N+](=O)[O-])cc1 | inconclusive: 22% |
| Cc1cc2cc(C(=O)NC(Cn3ccnc3)C(C)C)ccc2o1 (centres undefined) | inconclusive: 10% |
| COc1ccc(S(=O)(=O)Cc2ccc(C(=O)NCc3cccs3)o2)cc1 | inconclusive: 10% |
| O=C(c1cccs1)N1Cc2[nH]cnc2C[C@H]1c1nc(-c2ccc3ccccc3c2)no1 | inconclusive: 19% |
| O=c1cc(N2CCOCC2)oc2c(-c3ccccc3)cccc12 | inconclusive: 13% |
| Cc1c(N=Cc2cc([N+](=O)[O-])ccc2O)c(=O)n(-c2ccccc2)n1C | inactive |
| COc1ccc(C2(C(=O)N3CCCCC3)CCCC2)cc1OC | inactive |
| COc1cccc(CN2CC(C(=O)N3CCC(c4ccncc4)CC3)CCC2=O)c1 (centres undefined) | inconclusive: 18% |
| CC(=O)c1ccc(NC(=O)c2ccccc2I)cc1 | inactive |
| CCC1CN(CCC(=O)NCCC2COc3ccccc3O2)Cc2cc(OC)ccc2O1 (centres undefined) | inconclusive: 15% |
| O=C(Nc1cccc2ncccc12)c1ccc(-c2nnc(-c3ccccc3)o2)cc1 | inconclusive: 16% |
| Cc1[nH]nc(CCC(=O)NC2CC(=O)N(CCc3ccccc3)C2)c1C (centres undefined) | inconclusive: 23% |
| Cc1ccc2ccc(C(Nc3ccccn3)c3ccc(N(C)C)cc3)c(O)c2n1 (centres undefined) | active: 41% |
| CCOc1ccc(N(C(C)C(=O)Nc2ccc(Cl)cc2)S(C)(=O)=O)cc1 (centres undefined) | inactive |
| CCc1nc(C)c(C(=O)NCc2cc3c(nc2OC)CN(CC)C3=O)o1 | inconclusive: 22% |
| O=[N+]([O-])c1ccc(CN2CCC(Cc3ccccc3)CC2)o1 | inconclusive: 20% |
| CC1=C(C(=O)Nc2ccccc2)C(c2cccs2)n2nc(SCc3ccccc3)nc2N1 (centres undefined) | inconclusive: 22% |
| Cc1ccc(C(=O)c2ccc([N+](=O)[O-])cc2)cc1C | inconclusive: 27% |
| CN(Cc1ncccc1C(=O)O)Cc1nccn1Cc1ccccc1 | inconclusive: 15% |

4 entries already listed, ordered by formula weight, high to low:

| Structure (SMILES) | inhibition |
| --- | --- |
| O=C(Nc1cccc2ncccc12)c1ccc(-c2nnc(-c3ccccc3)o2)cc1 | inconclusive: 16% |
| CC(=O)c1ccc(NC(=O)c2ccccc2I)cc1 | inactive |
| COc1ccc(C2(C(=O)N3CCCCC3)CCCC2)cc1OC | inactive |
| COc1ccc2c(=O)c(Oc3ccc(C(=O)O)cc3)coc2c1 | inactive |

The listing continues.

| Structure (SMILES) | inhibition |
| --- | --- |
| CCC(Nc1cccc(OC)c1)C(=O)NCC1CCOCC1 (centres undefined) | inactive |
| COc1ccc(OC)c(NC(=O)c2cc3cc4ccc(C)cc4nc3s2)c1 | inconclusive: 14% |
| O=C1c2c(O)cc(O)cc2O[C@@H](c2ccc(O)cc2)[C@@H]1c1c(O)cc(O)c2c(=O)cc(-c3ccc(O)cc3)oc12 | inconclusive: 16% |
| CCOc1ccccc1CN1CCc2ccccc2C1 | inconclusive: 28% |
| O=[N+]([O-])c1cc(C(F)(F)F)ccc1N1CCN(CCOc2nonc2-c2ccccc2)CC1 | active: 45% |
| O=C(NCc1cnn2ccccc12)C1(c2ccccc2)CCCCC1 | inconclusive: 24% |
| CC(C)NC(=O)N[C@H]1C[C@H]2C(=O)NC[C@@H](CCC(=O)N3CCN(c4ccccc4)CC3)N2C1 | inconclusive: 16% |
| O=C(N[C@H]1CCN2C(=O)[C@@H](Cc3c[nH]c4ccccc34)NC(=O)[C@H]12)c1ccccc1 | active: 79% |
| Cc1ccc(CN2C(=O)CSc3ccc(C(=O)NC4CCCCC4C)cc32)cc1 (centres undefined) | inactive |
| CCOc1ccc(-c2cc(OCC)c3c(C)oc(C)c3c(=[O+]CC)c2)cc1 | inconclusive: 27% |
| COc1ccc(C2=N/C(=C\c3ccc(C)o3)C(=O)O2)cc1OC | inconclusive: 24% |
| C=C(C(=O)OC1CC2(C)C(O)CCC(=O)C2C(O)C1C(=C)C(=O)OC)C(O)CO (centres undefined) | inactive |
| c1cncc(-c2nc3c(c(NCCc4c[nH]c5ccccc45)n2)CNC3)c1 | inconclusive: 13% |
| NC(=O)COc1ccc(-c2ccccc2)cc1 | inconclusive: 11% |
| CC1CC(C)CN(C(=O)C2CCCN(S(=O)(=O)c3cnc[nH]3)C2)C1 (centres undefined) | inconclusive: 10% |
| CCc1noc(C)c1C(=O)N1CCC(CCC(=O)NCc2cccnc2)CC1 | inconclusive: 19% |
| Fc1ccc(CN2CCCCCC2)cc1 | inconclusive: 17% |
| COc1ccc2c(c1)CCc1c(C(=O)NCc3ccco3)noc1-2 | inconclusive: 10% |
| Cn1nc(-c2c(-c3ccccc3)ncn2CCO)c2c(Cl)cccc21 | inconclusive: 10% |
| COC(=O)c1ccc(CNCc2ccc3[nH]c(C)c(C)c3c2)cc1 | inconclusive: 12% |
| COc1ccc(F)c(-c2nc(CN3CCCCC3c3nc4ccccc4[nH]3)c(C)o2)c1 (centres undefined) | inconclusive: 14% |
| CCN(CC)CCN1C(=O)C(=O)C(=C(O)c2ccc(F)cc2)C1c1ccc([N+](=O)[O-])cc1 (centres undefined) | inconclusive: 10% |
| COc1cc(/C=C2/SC(=O)NC2=O)ccc1O | inactive |
| C=CCNC(=O)CN(Cc1ccc(C)cc1)S(=O)(=O)c1ccc(C)cc1 | inactive |

| Structure (SMILES) | inhibition |
| --- | --- |
| Cc1c(F)cccc1NC(=O)CN1CCC(Cc2noc(C3CC3)n2)CC1 | inconclusive: 17% |
| COc1ccc2nc(N3CCc4ccccc4C3)sc2c1 | inconclusive: 15% |
| COc1ccc(N=c2scc(-c3ccc4c(c3)OCCO4)n2CCO)cc1 | active: 32% |
| CCN(Cc1ccncc1)C1CCCN(C(=O)c2ccn(C(C)(C)C)c2)C1 (centres undefined) | inconclusive: 12% |
| CC1=C(C(=O)Nc2ccccc2)C(c2ccc(OCc3ccc(C)cc3)cc2)n2ncnc2N1 (centres undefined) | inactive |
| CC1CC(O)(C#CCOc2ccc(Cl)cc2)C(C)CN1C (centres undefined) | inconclusive: 16% |
| CCOC(=O)C1C(=O)C=C(c2cccs2)CC1c1cccc(F)c1 (centres undefined) | active: 47% |
| Cc1csc2ncc(C(=O)Nc3ccc(Oc4ccccc4)cc3)c(=O)n12 | inconclusive: 14% |
| CCC1CCC(C(=O)NC(C(=O)NCc2ccco2)C(C)C)CC1 (centres undefined) | inconclusive: 11% |
| CS(=O)(=O)NCC(O)Cn1c2ccccc2c2ccccc21 (centres undefined) | inconclusive: 10% |
| CCN(CC)c1ccc(NC(=O)Cc2ccccc2)cc1 | active: 36% |
| CC(=O)N1c2ccccc2NC2=C(C(=O)CC(c3ccccc3)C2)C1c1ccc2c(c1)OCO2 (centres undefined) | inconclusive: 10% |
| CCCn1cnc2cc(NCc3cc(OC)ccc3OC)ccc21 | inconclusive: 11% |
| Cc1ccc(S(=O)(=O)N2CCN(S(=O)(=O)c3ccccc3)C2)cc1[N+](=O)[O-] | inactive |
| CCn1cnc2c(cnn2-c2ccc(Cl)cc2)c1=O | inconclusive: 27% |
| CSc1cccc(CN2CCC(n3nccc3NC(=O)Cc3ccccc3)CC2)c1 | inconclusive: 22% |
| CCN(c1ccccc1)c1ncnc(N)c1[N+](=O)[O-] | inactive |
| O=S(=O)(c1ccccc1)c1nc(-c2ccco2)oc1SCc1ccc(F)cc1 | inconclusive: 10% |
| O=C(N/C(=C/c1ccco1)C(=O)N1CCCCC1)c1cccs1 | inconclusive: 14% |
| O=[N+]([O-])c1cc(Br)cc(C=Nc2ccc(-c3nc4ncccc4o3)cc2)c1O | inconclusive: 16% |
| Cc1ccc(C)c(CN2C(=O)CSc3ccc(C(=O)NC(C)C)cc32)c1 | inactive |
| CCSCCOC(=O)C1=C(C)NC2=C(C(=O)CCC2)C1c1coc2ccc(C)cc2c1=O (centres undefined) | inconclusive: 16% |
| O=C1S/C(=C\c2ccc(O)cc2)C(=O)N1c1ccc(O)cc1 | inactive |
| N#CCN1C(=O)c2ccccc2S1(=O)=O | inactive |

| Structure (SMILES) | inhibition |
| --- | --- |
| C=CCN(Cc1ccccc1OC)C(=O)c1ccc2n[nH]nc2c1 | inconclusive: 25% |
| O=C(CSc1ccc(Cl)cc1)N1CCCCC1 | inactive |
| C/C(=C\c1ccccc1)C1CC(=O)Nc2cc(O)c(C)cc21 (centres undefined) | inconclusive: 16% |
| CSc1sc(SC)c(CO)c1C=O | inactive |
| Cc1cccc(-n2cc(CN3CCN4CCN(C)CC4C3)cn2)c1 (centres undefined) | inconclusive: 17% |
| Cc1ccccc1CN1CCC(CN(CC2CCCO2)C(=O)c2nonc2C)CC1 (centres undefined) | inconclusive: 12% |
| O=C(C[C@@H]1O[C@H](CNS(=O)(=O)c2ccccc2)[C@@H](O)[C@H]1O)NCc1ccc(F)cc1 | inactive |
| c1ccc(Cn2c3c(c4ccccc42)CCc2nonc2-3)cc1 | inconclusive: 16% |
| COc1ccc(CN2CCN(c3ccc(F)cc3)CC2)c(OC)c1C | inconclusive: 23% |
| COc1ccc(OC)c(/C=C2/SC(=Nc3ccc(C)cc3)NC2=O)c1 | inactive |
| CCOc1ccccc1NS(=O)(=O)c1cccc2cccnc12 | inconclusive: 13% |
| O=C(O)C1CCCCC1C(=O)Nc1ccc(Cl)c(Cl)c1 (centres undefined) | inactive |
| COc1ccc(C(=O)Nc2c3c(nn2-c2ccc(C)cc2)CS(=O)C3)c(OC)c1 (centres undefined) | inactive |
| Cc1ccc(Nc2cc(C)nc(Nc3ccc(NC(=O)Cc4ccccc4)cc3)n2)cc1 | inactive |
| O=C(/C=C/c1ccc(Cl)cc1Cl)Nc1ccccc1F | inconclusive: 12% |
| CCC(CC)C(=O)N1CCC2(CC1)CN(CCc1ccccc1)CCN2C | inconclusive: 29% |
| COc1ccc(OC)c(Nc2nc(-c3sc(N)nc3C)cs2)c1 | active: 36% |
| CS(=O)(=O)Nc1cc(-c2noc([C@@H]3CCCN3C3CCC3)n2)ccn1 | inactive |
| CCOC(=O)N1CCN(Cc2ccc3c(c2)CN(C(=O)c2ccc(C#CC(C)(C)O)o2)CCO3)CC1 | inconclusive: 11% |
| Nc1ccc2nc3c(=O)[nH]c(=O)[nH]c3nc2c1 | active: 53% |
| Cc1ccnc(NC(=O)C2CCN(S(=O)(=O)c3cc4c(cc3C)NC(=O)CO4)CC2)c1 | inactive |
| CC(=O)Oc1cccc(C2C(C(=O)OCc3ccccc3)=C(C)N=C3SCCC(=O)N32)c1 (centres undefined) | inconclusive: 11% |

Reformatted bar-delimited: entries from further up
Structure (SMILES) | inhibition
C=CCN(Cc1ccccc1OC)C(=O)c1ccc2n[nH]nc2c1 | inconclusive: 25%
O=C(CSc1ccc(Cl)cc1)N1CCCCC1 | inactive
C/C(=C\c1ccccc1)C1CC(=O)Nc2cc(O)c(C)cc21 (centres undefined) | inconclusive: 16%
CSc1sc(SC)c(CO)c1C=O | inactive
